Experimental data from patent publication US20230192686A1, “1H-PYRROLO[2,3-B]PYRIDINES AND PREPARATION AND USES THEREOF” (BioSplice Therapeutics, Inc., priority 2021, published 2023).
The match of structure and compound is tentative.

Biological target: recombinant DYRK1A kinase (Homo sapiens, UniProt Q13627)
Assay: DYRK1A kinase assay (Ser/Thr 18 peptide Z-lyte FRET)
Conditions: DYRK1A kinase activity; 15 μM ATP, 4 μM Ser/Thr peptide 18, one hour at room temperature
Procedure: Representative compounds were screened using the assay procedure for DYRK1A kinase activity as described below.
Each compound was dissolved in DMSO as a 10 mM stock and used to prepare compound source plates. Serial dilution (1:3, 11-point dose-response curves from 10 μM to 0.00016 μM) and compound transfer was performed using the ECHO 550 (Labcyte, Sunnyvale, Calif.) into 1536-well black-walled round bottom plates (Corning).
The DYRK1A kinase assay was run using the Ser/Thr 18 peptide Z-lyte assay kit according to manufacturer's instructions (Life Technologies—a Division of Thermo-Fisher). This is a non-radioactive assay using fluorescence resonance energy transfer (FRET) between coumarin and fluorescein to detect kinase activity which is represented as a ratio of coumarin emission/fluorescein emission. […]
After incubation, Development Reagent A was diluted in Development Buffer then added to the reaction and allowed to further incubate for one hour at room temperature. The plate was read at Ex 400 Em 455 to detect the coumarin signal and Ex 400 Em 520 to measure the signal (EnVision Multilabel Plate Reader, PerkinElmer).
The Emission ratio (Em) was calculated as a ratio of the coumarin (C) emission signal (at 445 nm)/Fluorescein (F) emission signal (at 520 nm). […]

Row | SMILES | EC50 [nM]
1 | Cc1nc2ncc(-c3c[nH]c4nc(C5CC5)ccc34)cc2n1C(C)C | 7
2 | c1cnc2[nH]cc(-c3ccc4ncncc4c3)c2c1 | 4
